Source: PubChem BioAssay AID1347075 (National Center for Advancing Translational Sciences (NCATS), 2019)
The whole screen tested about 400,000 compounds, of which about 5,500 (1.4%) were called active. Inconclusive results, whose numbers are uncertain, are shown with a selection of clear calls. Calls follow the shape of the dose curve; as a rule, active = well fitted cell-killing curve with a large enough effect; inconclusive = small, poorly fitted or top-dose-only effect, or effect the other way; inactive = flat fitted curve, though single readings scatter. Potencies of inconclusive entries are doubtful fits and often do not repeat.

Experiment: qHTS assay for MDR1-selective chemotherapeutics: Primary screen using the parental adenocarcinoma cell KB-3-1; also: nearly all actives have a fitted effect of over 60% in size
Conditions: KB-3-1 viability, CellTiter-Glo ATP luminescence, 72 h; activity change, negative = cytotoxic: at 46.1 µM (top of the series)
How it was run: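 Parental KB-3-1 viability, qHTS format: 72 h compound exposure, 37 °C; CellTiter-Glo; media-only wells and DMSO plates as controls; concentration-effect fits on corrected data.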
% is scaled to controls: 0 for no effect and ±100 for the full control effect; potency is read from the fitted curve at half-maximal effect.

**Q.** With `CN(c1nc2nonc2nc1NC1CC1)C1CCOC1` (stereo not given) as the compound, how does the Potency read?
**A.** inconclusive: 29.1 µM [rising, single point]

**Q.** With `Cc1nnc(SCc2ccccc2)n1CC1CCCO1` (stereo not given) as the compound, how does the Potency read?
**A.** inconclusive: 0.0366 µM [rising, full curve]

**Q.** With `O=C1CC(Sc2nnnn2-c2ccccc2)C(=O)N1c1cccc(Cl)c1` (stereo not given) as the compound, how does the Potency read?
**A.** inconclusive: 29.1 µM [cytotoxic, single point]

**Q.** With `COCCCN(Cc1ccco1)C(=O)c1cc2c(s1)-c1ccccc1OC2` as the compound, how does the Potency read?
**A.** inconclusive: 29.1 µM [cytotoxic, single point]

**Q.** For `Cc1noc(C)c1COc1ccc(CC(=O)NCc2ccccc2)cc1`, which Potency is on record?
**A.** inconclusive: 5.8 µM [cytotoxic, full curve, poor fit]

**Q.** Which “activity change, negative = cytotoxic” value does the source give for `CCN(Cc1ccccc1)C(=O)Cc1c[nH]c2ccccc12` here?
**A.** inactive: -0.716%

**Q.** For `Cc1nn(-c2ccccc2)c(N)c1Sc1cccc([N+](=O)[O-])c1`, which “activity change, negative = cytotoxic” value is on record?
**A.** inactive: 4.99%

**Q.** With `CN(C)C(=S)N=c1ssc(=S)n1Cc1ccco1` as the compound, how does the Potency read?
**A.** active: 4.11 µM

**Q.** For `CCN1C(=O)[C@H]2[C@@H](c3ccc(C)cc3)N[C@]3(CCCN(Cc4cccn4C)C3=O)[C@H]2C1=O`, which “activity change, negative = cytotoxic” value is on record?
**A.** inactive: -0.137%

**Q.** With `Cc1ccc(S(=O)(=O)N2CCCOC2)cc1` as the compound, how does the “activity change, negative = cytotoxic” value read?
**A.** inactive: -6.26%

**Q.** With `O=c1[nH]c(CN2CCN(c3ccc(O)cc3)CC2)nc2scc(-c3ccc(Cl)cc3)c12` as the compound, how does the Potency read?
**A.** inconclusive: 2.59 µM [cytotoxic, partial curve, poor fit]

**Q.** Which Potency does the source give for `CC1CCCCC1NC(=O)/C(C#N)=C/C=C/c1ccccc1[N+](=O)[O-]` (stereo not given) here?
**A.** active: 5.8 µM

**Q.** Which Potency does the source give for `CNS(=O)(=O)c1ccc2c(c1)C(=O)c1cc(S(=O)(=O)NC)ccc1CC2` here?
**A.** inconclusive: 29.1 µM [cytotoxic, single point]

**Q.** For `C[n+]1ccc(/C=C/c2ccc3c(c2)OCO3)c2ccccc21`, which Potency is on record?
**A.** inconclusive: 29.1 µM [rising, single point]

**Q.** For `O=C(CCNS(=O)(=O)c1ccc2c(c1)CCN2C(=O)C1CC1)N1CCN(c2cccc(Cl)c2)CC1`, which Potency is on record?
**A.** inconclusive: 23.1 µM [cytotoxic, partial curve, poor fit]

**Q.** For `c1ccc(NNC2=NCCCCC2)cc1`, which Potency is on record?
**A.** inconclusive: 0.58 µM [cytotoxic, full curve, poor fit]

**Q.** Which “activity change, negative = cytotoxic” value does the source give for `CCc1ccc(C2c3c(-c4ccccc4O)n[nH]c3C(=O)N2Cc2cccnc2)cc1` (stereo not given) here?
**A.** inactive: -6.2%

**Q.** Which “activity change, negative = cytotoxic” value does the source give for `Cc1ccc(S(=O)(=O)Nc2ccccc2CNc2cccc(C)n2)cc1` here?
**A.** inactive: -17.5%

**Q.** With `COc1cc(C(=O)NCC(c2ccc(F)cc2)N2CCOCC2)ccc1OCc1ccccc1Cl` (stereo not given) as the compound, how does the “activity change, negative = cytotoxic” value read?
**A.** inactive: -16.3%

**Q.** With `Clc1ccc(-n2cccc2CN2CCc3c([nH]c4ccccc34)C2c2ccccn2)nc1` (stereo not given) as the compound, how does the Potency read?
**A.** inconclusive: 0.0018 µM [cytotoxic, full curve, poor fit]
